Reference: the supplement of paper PMC12823440, “Inhibitors supercharge kinase turnover through native proteolytic circuits” (Nature, 2025)
Where a name gives a salt, the structure may show the parent alone. This is one part of the list. Hit calls seldom repeat between salt and free forms of one compound.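 Kinases, fused to nanoluciferase, were expressed in K562 cells; luminescence was measured every 4 h from 2 to 18 h as percent of control (DMSO = 100%, positive control = 0%). A time point is decreased if signal falls significantly (2 sigma). Hits were called by the authors by a rule that is not shown; the count of time points alone does not decide it.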

By UniProt entry, the sequences of proteins in these tests, tags left out. Where a name states a change or a piece, a line headed by the entry shows the natural chain unless it says otherwise.
UniProt P31749: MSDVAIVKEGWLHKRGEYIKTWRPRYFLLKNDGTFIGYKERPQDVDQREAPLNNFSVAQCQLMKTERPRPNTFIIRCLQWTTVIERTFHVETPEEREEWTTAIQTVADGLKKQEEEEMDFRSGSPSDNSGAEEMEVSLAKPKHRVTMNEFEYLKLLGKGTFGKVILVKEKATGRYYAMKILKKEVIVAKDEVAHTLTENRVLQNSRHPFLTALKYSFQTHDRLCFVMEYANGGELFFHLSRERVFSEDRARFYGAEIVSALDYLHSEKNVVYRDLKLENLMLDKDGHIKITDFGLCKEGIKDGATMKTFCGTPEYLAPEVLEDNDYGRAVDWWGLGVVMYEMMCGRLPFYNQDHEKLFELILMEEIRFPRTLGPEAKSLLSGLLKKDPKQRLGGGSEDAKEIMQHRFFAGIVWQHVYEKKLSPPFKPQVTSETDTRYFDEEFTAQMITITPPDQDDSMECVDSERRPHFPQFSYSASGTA
UniProt Q9UM73: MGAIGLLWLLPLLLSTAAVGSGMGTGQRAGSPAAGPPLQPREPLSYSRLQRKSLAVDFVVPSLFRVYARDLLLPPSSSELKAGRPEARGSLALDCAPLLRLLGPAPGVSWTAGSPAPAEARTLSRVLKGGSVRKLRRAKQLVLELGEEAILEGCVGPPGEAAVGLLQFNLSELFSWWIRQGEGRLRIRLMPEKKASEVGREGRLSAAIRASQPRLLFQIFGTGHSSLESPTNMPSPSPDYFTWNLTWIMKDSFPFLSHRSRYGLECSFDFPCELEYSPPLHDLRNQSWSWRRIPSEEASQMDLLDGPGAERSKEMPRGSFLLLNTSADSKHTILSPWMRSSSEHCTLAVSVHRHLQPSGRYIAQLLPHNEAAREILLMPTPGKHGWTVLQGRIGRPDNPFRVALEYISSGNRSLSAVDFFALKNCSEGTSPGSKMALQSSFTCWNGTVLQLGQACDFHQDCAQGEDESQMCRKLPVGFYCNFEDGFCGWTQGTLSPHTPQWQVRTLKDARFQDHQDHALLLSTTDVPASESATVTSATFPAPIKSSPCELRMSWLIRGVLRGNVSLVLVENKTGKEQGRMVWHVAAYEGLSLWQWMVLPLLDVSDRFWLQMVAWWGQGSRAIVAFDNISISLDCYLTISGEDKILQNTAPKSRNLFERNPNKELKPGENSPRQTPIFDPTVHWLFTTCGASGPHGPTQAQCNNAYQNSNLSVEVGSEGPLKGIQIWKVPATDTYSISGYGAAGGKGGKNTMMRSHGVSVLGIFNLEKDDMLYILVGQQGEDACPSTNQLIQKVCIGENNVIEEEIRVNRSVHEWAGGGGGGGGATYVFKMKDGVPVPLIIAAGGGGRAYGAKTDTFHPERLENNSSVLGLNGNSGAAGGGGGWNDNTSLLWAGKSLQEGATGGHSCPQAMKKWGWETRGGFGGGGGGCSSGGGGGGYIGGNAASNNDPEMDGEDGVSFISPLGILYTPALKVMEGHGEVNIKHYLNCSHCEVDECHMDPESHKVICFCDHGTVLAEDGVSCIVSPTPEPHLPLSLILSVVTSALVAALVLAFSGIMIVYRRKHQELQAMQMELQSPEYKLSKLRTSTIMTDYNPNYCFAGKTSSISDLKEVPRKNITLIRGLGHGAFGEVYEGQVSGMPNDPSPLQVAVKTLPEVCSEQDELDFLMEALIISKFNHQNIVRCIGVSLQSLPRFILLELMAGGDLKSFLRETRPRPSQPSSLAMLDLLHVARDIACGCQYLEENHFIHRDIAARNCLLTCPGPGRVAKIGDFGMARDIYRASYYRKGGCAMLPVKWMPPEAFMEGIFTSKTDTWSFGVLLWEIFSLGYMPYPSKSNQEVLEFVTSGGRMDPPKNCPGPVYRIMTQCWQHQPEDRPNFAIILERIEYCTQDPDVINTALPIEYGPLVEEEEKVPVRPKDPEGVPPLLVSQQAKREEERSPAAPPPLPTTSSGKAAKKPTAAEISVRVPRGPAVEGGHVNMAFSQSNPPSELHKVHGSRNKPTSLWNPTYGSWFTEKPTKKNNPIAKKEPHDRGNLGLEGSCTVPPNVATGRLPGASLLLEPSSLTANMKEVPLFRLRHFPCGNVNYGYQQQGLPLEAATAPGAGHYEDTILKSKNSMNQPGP
UniProt P10398: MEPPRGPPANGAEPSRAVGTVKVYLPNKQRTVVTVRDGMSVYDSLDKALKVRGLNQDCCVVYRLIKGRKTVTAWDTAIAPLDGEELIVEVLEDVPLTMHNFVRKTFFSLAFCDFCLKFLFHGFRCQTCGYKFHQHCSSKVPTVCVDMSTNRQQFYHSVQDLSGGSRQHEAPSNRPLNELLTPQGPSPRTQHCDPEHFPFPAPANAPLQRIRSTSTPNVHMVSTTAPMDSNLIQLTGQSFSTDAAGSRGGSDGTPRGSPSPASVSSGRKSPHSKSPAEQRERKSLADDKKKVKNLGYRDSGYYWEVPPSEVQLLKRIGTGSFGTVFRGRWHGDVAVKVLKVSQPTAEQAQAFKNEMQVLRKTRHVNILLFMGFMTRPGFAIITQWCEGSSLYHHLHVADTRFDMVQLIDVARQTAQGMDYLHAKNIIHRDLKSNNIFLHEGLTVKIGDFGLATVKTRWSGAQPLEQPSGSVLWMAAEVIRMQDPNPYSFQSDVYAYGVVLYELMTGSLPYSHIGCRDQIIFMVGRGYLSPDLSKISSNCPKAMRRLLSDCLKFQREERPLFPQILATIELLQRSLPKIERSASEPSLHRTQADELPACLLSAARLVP
UniProt O14965: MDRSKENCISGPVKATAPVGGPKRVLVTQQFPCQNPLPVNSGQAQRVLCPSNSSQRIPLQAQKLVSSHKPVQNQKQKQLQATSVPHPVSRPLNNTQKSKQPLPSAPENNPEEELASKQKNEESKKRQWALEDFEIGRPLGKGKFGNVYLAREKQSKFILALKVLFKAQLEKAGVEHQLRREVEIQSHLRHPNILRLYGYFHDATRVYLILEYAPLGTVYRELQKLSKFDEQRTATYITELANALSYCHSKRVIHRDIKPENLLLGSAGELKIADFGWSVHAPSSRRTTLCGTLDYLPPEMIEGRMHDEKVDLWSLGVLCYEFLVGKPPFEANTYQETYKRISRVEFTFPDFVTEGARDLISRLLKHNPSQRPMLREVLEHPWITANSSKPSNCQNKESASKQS
UniProt Q96GD4, whole entry: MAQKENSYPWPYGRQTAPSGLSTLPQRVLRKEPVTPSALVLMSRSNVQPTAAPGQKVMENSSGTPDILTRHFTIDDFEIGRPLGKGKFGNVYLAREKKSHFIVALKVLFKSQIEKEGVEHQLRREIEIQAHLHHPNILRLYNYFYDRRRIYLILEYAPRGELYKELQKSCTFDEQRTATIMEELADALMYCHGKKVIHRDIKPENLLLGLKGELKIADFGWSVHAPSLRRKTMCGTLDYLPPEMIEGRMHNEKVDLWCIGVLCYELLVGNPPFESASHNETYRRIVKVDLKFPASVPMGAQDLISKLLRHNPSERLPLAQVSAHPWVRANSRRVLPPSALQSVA
UniProt Q9UQB9: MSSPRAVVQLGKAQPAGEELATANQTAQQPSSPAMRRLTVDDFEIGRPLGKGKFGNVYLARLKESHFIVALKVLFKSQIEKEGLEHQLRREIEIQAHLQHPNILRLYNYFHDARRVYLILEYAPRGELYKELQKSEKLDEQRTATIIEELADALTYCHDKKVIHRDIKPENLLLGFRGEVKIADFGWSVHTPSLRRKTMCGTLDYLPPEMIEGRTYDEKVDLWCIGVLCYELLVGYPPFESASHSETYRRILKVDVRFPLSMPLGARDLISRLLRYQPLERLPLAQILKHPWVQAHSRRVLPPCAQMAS
UniProt P51451: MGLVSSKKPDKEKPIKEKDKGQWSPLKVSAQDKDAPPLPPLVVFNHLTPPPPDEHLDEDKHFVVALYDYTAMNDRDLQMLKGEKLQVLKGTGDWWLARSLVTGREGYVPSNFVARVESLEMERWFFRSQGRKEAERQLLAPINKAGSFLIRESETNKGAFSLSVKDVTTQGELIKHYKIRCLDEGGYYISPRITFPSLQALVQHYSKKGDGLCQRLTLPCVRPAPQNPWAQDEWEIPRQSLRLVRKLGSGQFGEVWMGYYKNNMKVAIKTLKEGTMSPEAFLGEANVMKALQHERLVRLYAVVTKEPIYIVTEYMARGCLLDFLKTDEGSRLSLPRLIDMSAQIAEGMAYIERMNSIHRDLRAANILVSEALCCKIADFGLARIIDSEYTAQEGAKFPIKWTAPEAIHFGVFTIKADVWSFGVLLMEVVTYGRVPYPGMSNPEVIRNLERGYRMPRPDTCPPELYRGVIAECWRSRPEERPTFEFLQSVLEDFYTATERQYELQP
UniProt P51813: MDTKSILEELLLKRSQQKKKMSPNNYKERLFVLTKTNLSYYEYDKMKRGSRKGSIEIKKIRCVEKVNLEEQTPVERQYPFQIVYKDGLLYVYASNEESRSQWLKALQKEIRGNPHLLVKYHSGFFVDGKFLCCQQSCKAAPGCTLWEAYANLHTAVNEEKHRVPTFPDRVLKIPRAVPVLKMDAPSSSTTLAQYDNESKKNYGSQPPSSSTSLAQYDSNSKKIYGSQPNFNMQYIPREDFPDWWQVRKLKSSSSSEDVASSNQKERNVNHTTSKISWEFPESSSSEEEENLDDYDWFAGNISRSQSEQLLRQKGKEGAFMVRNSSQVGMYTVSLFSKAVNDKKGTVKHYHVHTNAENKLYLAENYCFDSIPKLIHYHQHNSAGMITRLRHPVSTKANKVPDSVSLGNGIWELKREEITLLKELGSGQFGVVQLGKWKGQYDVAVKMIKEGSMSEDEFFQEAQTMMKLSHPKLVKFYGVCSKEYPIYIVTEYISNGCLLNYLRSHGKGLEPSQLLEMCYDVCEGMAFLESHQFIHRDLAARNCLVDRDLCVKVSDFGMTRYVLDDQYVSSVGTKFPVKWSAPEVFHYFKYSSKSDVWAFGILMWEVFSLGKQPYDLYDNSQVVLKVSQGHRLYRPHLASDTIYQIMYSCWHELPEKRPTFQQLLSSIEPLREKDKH
UniProt P15056, whole entry, looked up: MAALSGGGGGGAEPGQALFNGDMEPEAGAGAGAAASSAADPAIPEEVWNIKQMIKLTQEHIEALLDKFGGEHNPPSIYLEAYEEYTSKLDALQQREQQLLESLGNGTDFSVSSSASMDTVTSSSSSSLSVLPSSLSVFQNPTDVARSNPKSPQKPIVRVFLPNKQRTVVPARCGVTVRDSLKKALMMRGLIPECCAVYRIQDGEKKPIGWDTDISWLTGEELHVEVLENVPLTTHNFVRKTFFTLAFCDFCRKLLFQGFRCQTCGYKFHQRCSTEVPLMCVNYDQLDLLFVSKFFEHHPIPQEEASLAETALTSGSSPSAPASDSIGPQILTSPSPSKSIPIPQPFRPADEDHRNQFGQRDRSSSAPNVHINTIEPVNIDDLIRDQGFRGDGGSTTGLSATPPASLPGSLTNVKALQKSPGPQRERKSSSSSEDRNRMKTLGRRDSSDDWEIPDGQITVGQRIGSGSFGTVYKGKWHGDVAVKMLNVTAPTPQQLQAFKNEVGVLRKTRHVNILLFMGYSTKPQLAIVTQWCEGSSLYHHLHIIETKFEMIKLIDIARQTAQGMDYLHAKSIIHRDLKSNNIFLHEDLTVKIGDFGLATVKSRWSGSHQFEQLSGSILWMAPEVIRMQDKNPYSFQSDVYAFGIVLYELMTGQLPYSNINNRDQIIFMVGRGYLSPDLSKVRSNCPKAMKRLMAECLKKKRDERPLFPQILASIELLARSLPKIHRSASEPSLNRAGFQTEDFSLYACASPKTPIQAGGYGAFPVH

Assays:
Assay in all cases: kinase-Nluc reporter destabilization hit call (1 = scored as downregulated) (binary); higher = compound decreases kinase abundance
Conditions in all cases: K562; 2-18 h
[1] = biological target: ABL1 (UniProt P00519)
[2] = biological target: AKT1 (UniProt P31749)
[3] = biological target: ALK (UniProt Q9UM73)
[4] = biological target: ARAF (UniProt P10398)
[5] = biological target: AURKA (UniProt O14965)
[6] = biological target: AURKB (UniProt Q96GD4)
[7] = biological target: AURKC (UniProt Q9UQB9)
[8] = biological target: BLK (UniProt P51451)
[9] = biological target: BMX (UniProt P51813)
[10] = biological target: BRAF (UniProt P15056)

SMILES	kinase-Nluc reporter destabilization hit call [1]	kinase-Nluc reporter destabilization hit call [2]	kinase-Nluc reporter destabilization hit call [3]	kinase-Nluc reporter destabilization hit call [4]	kinase-Nluc reporter destabilization hit call [5]	kinase-Nluc reporter destabilization hit call [6]	kinase-Nluc reporter destabilization hit call [7]	kinase-Nluc reporter destabilization hit call [8]	kinase-Nluc reporter destabilization hit call [9]	kinase-Nluc reporter destabilization hit call [10]
NS(=O)(=O)c1ccc(Nc2nc(-c3cccc(-c4ccccc4)c3)c3[nH]cnc3n2)cc1 (10 µM)	inactive: 0	inactive: 0	inactive: 0	inactive: 0	inactive: 0	inactive: 0	inactive: 0	inactive: 0	inactive: 0	inactive: 0
CC(Sc1nc2c(cnn2-c2cccc(Cl)c2)c(=O)[nH]1)C(N)=O (stereo not given) (10 µM)	inactive: 0	inactive: 0	inactive: 0	inactive: 0	inactive: 0	inactive: 0	inactive: 0	inactive: 0	inactive: 0	inactive: 0
O=C(O)c1ccc(/C=C/S(=O)(=O)Cc2ccc(Cl)cc2)cc1 [Recilisib] (10 µM)	inactive: 0	inactive: 0	inactive: 0	inactive: 0	inactive: 0	inactive: 0	inactive: 0	inactive: 0	inactive: 0	inactive: 0
C=CC(=O)Nc1ccc(C(=O)Nc2[nH]nc3c2CN(C(=O)N[C@H](CN(C)C)c2ccccc2)C3(C)C)cc1 (10 µM)	inactive: 0	inactive: 0	inactive: 0	inactive: 0	inactive: 0	inactive: 0	inactive: 0	inactive: 0	inactive: 0	inactive: 0
CCc1c[nH]c2ncnc(N3CC[C@](N)(CNC(=O)c4ccc(F)cc4F)C3)c12 (10 µM)	inactive: 0	inactive: 0	inactive: 0	inactive: 0	inactive: 0	inactive: 0	inactive: 0	inactive: 0	inactive: 0	inactive: 0
CNC(=O)CNc1cnc2ccc(-c3ccc(OC)c(OC)c3)cc2n1 (10 µM)	inactive: 0	inactive: 0	inactive: 0	inactive: 0	inactive: 0	inactive: 0	inactive: 0	inactive: 0	inactive: 0	inactive: 0
NC(=O)c1cnc(-c2ccc(C3(N)CCC3)cc2)c(-c2ccccc2)c1 (10 µM)	inactive: 0	inactive: 0	inactive: 0	inactive: 0	inactive: 0	inactive: 0	inactive: 0	inactive: 0	inactive: 0	inactive: 0
COc1cc2ncnc(Nc3ccc(O)c(Br)c3)c2cc1OC (10 µM)	inactive: 0	inactive: 0	inactive: 0	inactive: 0	inactive: 0	inactive: 0	inactive: 0	inactive: 0	inactive: 0	inactive: 0
O=C(NCCN1CCOCC1)Nc1nc2ccc(Sc3nnc4ccc(-c5ccc(F)cc5)nn34)cc2s1 (10 µM)	inactive: 0	inactive: 0	inactive: 0	inactive: 0	inactive: 0	inactive: 0	inactive: 0	inactive: 0	inactive: 0	inactive: 0
O=C1Nc2ccc(I)cc2/C1=C/c1cc(Br)c(O)c(Br)c1 (10 µM)	inactive: 0	inactive: 0	inactive: 0	inactive: 0	inactive: 0	inactive: 0	inactive: 0	inactive: 0	inactive: 0	active: 1
CN1CCN(c2cc(-c3ccncc3)c(-c3ccc4ccccc4c3)nn2)CC1 (10 µM)	inactive: 0	inactive: 0	inactive: 0	inactive: 0	inactive: 0	inactive: 0	inactive: 0	inactive: 0	inactive: 0	inactive: 0
C=CC(=O)Nc1cc(Nc2nccc(-c3cn(C)c4ccccc34)n2)c(OC)cc1N(C)CCNC [AZ7550 Mesylate] (2.5 µM)	inactive: 0	inactive: 0	inactive: 0	inactive: 0	inactive: 0	inactive: 0	inactive: 0	inactive: 0	inactive: 0	inactive: 0
Cc1cc([C@@H](C)Nc2ccccc2C(=O)O)c2nc(N3CCOCC3)cc(=O)n2c1 (10 µM)	inactive: 0	inactive: 0	inactive: 0	inactive: 0	inactive: 0	inactive: 0	inactive: 0	inactive: 0	inactive: 0	inactive: 0
Cn1c2cc([S+](C)[O-])sc2c2cnn(Cc3cccc(N)c3)c(=O)c21 (stereo not given) (2.5 µM)	inactive: 0	inactive: 0	inactive: 0	inactive: 0	inactive: 0	inactive: 0	inactive: 0	inactive: 0	inactive: 0	inactive: 0
C[C@@H]1O[C@@H](Oc2cc(O)c3c(=O)c(O[C@@H]4O[C@@H](C)[C@H](O)[C@@H](O)[C@H]4O)c(-c4ccc(O)cc4)oc3c2)[C@H](O)[C@H](O)[C@H]1O [Kaempferitrin] (10 µM)	inactive: 0	inactive: 0	inactive: 0	inactive: 0	inactive: 0	inactive: 0	inactive: 0	inactive: 0	inactive: 0	inactive: 0
CC1CN(CC2CCN(Cc3ccccc3)CC2)C(=O)N(c2cccc(C(=N)N)c2)C1 (stereo not given) (10 µM)	inactive: 0	inactive: 0	inactive: 0	inactive: 0	inactive: 0	inactive: 0	inactive: 0	inactive: 0	inactive: 0	inactive: 0
Cc1c(C)c(NCC(=O)N(C)C2CCN(Cc3ccc(C(N)=O)cc3)CC2)c(C)c(C)c1N (10 µM)	inactive: 0	inactive: 0	inactive: 0	inactive: 0	inactive: 0	inactive: 0	inactive: 0	inactive: 0	inactive: 0	inactive: 0

SMILES	kinase-Nluc reporter destabilization hit call [1]	kinase-Nluc reporter destabilization hit call [2]	kinase-Nluc reporter destabilization hit call [3]	kinase-Nluc reporter destabilization hit call [4]	kinase-Nluc reporter destabilization hit call [5]	kinase-Nluc reporter destabilization hit call [6]	kinase-Nluc reporter destabilization hit call [7]	kinase-Nluc reporter destabilization hit call [8]	kinase-Nluc reporter destabilization hit call [9]	kinase-Nluc reporter destabilization hit call [10]
Cc1ccc(C(=O)NC2CC2)cc1-n1ncc(C(=O)c2cccc(C#N)c2)c1N [Acumapimod] (10 µM)	inactive: 0	inactive: 0	inactive: 0	inactive: 0	inactive: 0	inactive: 0	inactive: 0	inactive: 0	inactive: 0	inactive: 0
CC(C)=CCC/C(C)=C/CC/C(C)=C/C=C/C(C)=C/C(=O)O [Peretinoin] (10 µM)	inactive: 0	inactive: 0	inactive: 0	inactive: 0	inactive: 0	inactive: 0	inactive: 0	inactive: 0	inactive: 0	inactive: 0
CC1=C(C(=O)Nc2cc3cn[nH]c3cc2F)C(c2ccc(C(F)(F)F)cc2)CC(=O)N1 (stereo not given) (10 µM)	inactive: 0	inactive: 0	inactive: 0	inactive: 0	inactive: 0	inactive: 0	inactive: 0	inactive: 0	inactive: 0	inactive: 0
CCN(CC)CCCC(C)Nc1nc(C)cc(Nc2ccc3nc(C)cc(N)c3c2)n1 (stereo not given) (10 µM)	inactive: 0	inactive: 0	inactive: 0	inactive: 0	inactive: 0	inactive: 0	inactive: 0	inactive: 0	inactive: 0	inactive: 0
COc1cc(F)ccc1-c1ncnc(Nc2cccc(C[S@](C)(=N)=O)c2)n1 [Atuveciclib] (2.5 µM)	inactive: 0	inactive: 0	inactive: 0	inactive: 0	inactive: 0	inactive: 0	inactive: 0	inactive: 0	inactive: 0	inactive: 0
O=C(ON=C1c2ccccc2-c2nc3ccccc3nc21)c1ccco1 (2.5 µM)	inactive: 0	inactive: 0	inactive: 0	inactive: 0	inactive: 0	inactive: 0	inactive: 0	inactive: 0	inactive: 0	inactive: 0
CCCn1/c(=N/C(=O)c2cccc(C(N)=O)c2)[nH]c2ccccc21 [Takinib] (10 µM)	inactive: 0	inactive: 0	inactive: 0	inactive: 0	inactive: 0	inactive: 0	inactive: 0	inactive: 0	inactive: 0	inactive: 0
O=Nc1c(-c2c(O)[nH]c3cc(Br)ccc23)[nH]c2ccccc12 [GSK 3 Inhibitor IX] (2.5 µM)	inactive: 0	inactive: 0	inactive: 0	inactive: 0	inactive: 0	inactive: 0	inactive: 0	inactive: 0	inactive: 0	inactive: 0
COc1cc(N2CCOCC2)ccc1Nc1ncc(F)c(Nc2ccccc2NS(C)(=O)=O)n1 (10 µM)	inactive: 0	inactive: 0	inactive: 0	inactive: 0	inactive: 0	inactive: 0	inactive: 0	inactive: 0	inactive: 0	inactive: 0
COc1ccc(-c2cc(=O)c3c(OC)cc(OC)c(OC)c3o2)cc1 [6-Demethoxytangeretin] (10 µM)	inactive: 0	inactive: 0	inactive: 0	inactive: 0	inactive: 0	inactive: 0	inactive: 0	inactive: 0	inactive: 0	inactive: 0
CCC(=O)Nc1cccc(Oc2nc(Nc3ccc(N4CCN(C)CC4)cc3OC)ncc2Cl)c1 (10 µM)	inactive: 0	inactive: 0	inactive: 0	inactive: 0	inactive: 0	inactive: 0	inactive: 0	inactive: 0	inactive: 0	inactive: 0
COc1cc2ncnc(Nc3cccc(I)c3)c2cc1OC (2.5 µM)	inactive: 0	inactive: 0	inactive: 0	inactive: 0	inactive: 0	inactive: 0	inactive: 0	inactive: 0	inactive: 0	inactive: 0
CNC(=O)c1ccc2c(C(=Nc3cccc(CN(C)C)c3)c3ccccc3)c(O)[nH]c2c1 [MEK inhibitor] (10 µM)	inactive: 0	inactive: 0	inactive: 0	inactive: 0	inactive: 0	inactive: 0	inactive: 0	inactive: 0	inactive: 0	inactive: 0
Cn1ncc(NC(=O)c2nc(-c3c(F)cccc3F)sc2N)c1N1CC[C@@H](N)[C@H](F)CC1 (10 µM)	inactive: 0	inactive: 0	inactive: 0	inactive: 0	inactive: 0	inactive: 0	inactive: 0	inactive: 0	inactive: 0	inactive: 0
O=c1cc(N2CCOCC2)oc2c(-c3ccc4c(c3)OCCO4)csc12 (2.5 µM)	inactive: 0	inactive: 0	inactive: 0	inactive: 0	inactive: 0	inactive: 0	inactive: 0	inactive: 0	inactive: 0	inactive: 0
C=CC(=O)N1CC[C@@H](Oc2nc(Nc3ccc(N4CCC(N5CCN(C)CC5)CC4)cc3)c(C(N)=O)nc2CC)C1 [Naquotinib (mesylate)] (2.5 µM)	inactive: 0	inactive: 0	inactive: 0	inactive: 0	inactive: 0	inactive: 0	inactive: 0	inactive: 0	inactive: 0	inactive: 0

Taken from above:
kinase-Nluc reporter destabilization hit call [8], CCC(=O)Nc1cccc(Oc2nc(Nc3ccc(N4CCN(C)CC4)cc3OC)ncc2Cl)c1 (10 µM) is entered as inactive: 0
kinase-Nluc reporter destabilization hit call [7], CC1=C(C(=O)Nc2cc3cn[nH]c3cc2F)C(c2ccc(C(F)(F)F)cc2)CC(=O)N1 (stereo not given) (10 µM) is entered as inactive: 0
